These are yes or no findings as the source states them, for the method shown. In cells and extracts the contact can be indirect. A yes stands for co-enrichment or nearness to the bait. Other partners may have been found.
Biological target: T1, Peroxiredoxin 1 (human (endogenous in DOK cells and in human OLK tissue)) (UniProt Q06830)
T1 sequence: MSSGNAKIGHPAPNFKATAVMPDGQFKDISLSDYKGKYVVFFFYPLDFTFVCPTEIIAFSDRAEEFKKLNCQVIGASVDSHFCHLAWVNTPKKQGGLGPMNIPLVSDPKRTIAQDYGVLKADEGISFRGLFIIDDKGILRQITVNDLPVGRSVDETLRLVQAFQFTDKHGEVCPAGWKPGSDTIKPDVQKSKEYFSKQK
Assay: affinity purification with mass spectrometry; total protein of human DOK cells (nicotine treatment group, 1 uM nicotine for 7 days, and control group) incubated with anti-Prx1 antibody (Co-IP); peptides analysed by LC-MS/MS; proteins with unique peptide counts >=1 accepted

The chains behind the UniProt entries cited, without tags or fusion partners.
UniProt P23528: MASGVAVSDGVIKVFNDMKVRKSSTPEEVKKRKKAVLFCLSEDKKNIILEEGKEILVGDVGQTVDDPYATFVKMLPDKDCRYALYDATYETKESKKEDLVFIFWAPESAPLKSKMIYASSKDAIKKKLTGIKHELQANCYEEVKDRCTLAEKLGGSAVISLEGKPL
UniProt P30153: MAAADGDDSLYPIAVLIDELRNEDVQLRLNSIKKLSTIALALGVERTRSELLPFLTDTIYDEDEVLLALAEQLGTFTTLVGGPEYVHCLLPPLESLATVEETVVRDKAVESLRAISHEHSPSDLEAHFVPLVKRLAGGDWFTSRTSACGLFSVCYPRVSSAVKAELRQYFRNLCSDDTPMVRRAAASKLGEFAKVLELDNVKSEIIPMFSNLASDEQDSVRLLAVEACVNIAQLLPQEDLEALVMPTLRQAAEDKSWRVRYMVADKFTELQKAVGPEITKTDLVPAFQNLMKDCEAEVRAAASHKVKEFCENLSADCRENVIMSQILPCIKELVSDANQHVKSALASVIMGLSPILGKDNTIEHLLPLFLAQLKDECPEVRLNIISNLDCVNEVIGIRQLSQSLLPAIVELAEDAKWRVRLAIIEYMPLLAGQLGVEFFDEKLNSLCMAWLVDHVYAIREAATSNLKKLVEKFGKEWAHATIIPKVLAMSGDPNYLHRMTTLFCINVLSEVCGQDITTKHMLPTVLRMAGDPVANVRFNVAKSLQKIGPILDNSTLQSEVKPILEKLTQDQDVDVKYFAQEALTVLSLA

In the case of Cofilin-1 (from UniProt P23528 1-166), the binding is reported as “binds”.
For “Serine/threonine-protein phosphatase 2A 65 kDa regulatory subunit A alpha isoform (from UniProt P30153 1-589)”, the binding was “binds”.
